Four sequences from US20100304462 can be followed below.

Holding throughout (test): enzyme reaction in vitro
Data set [1] relates to T1, CdpI (Corynebacterium diphtheriae).
T1 sequence (limits assumed): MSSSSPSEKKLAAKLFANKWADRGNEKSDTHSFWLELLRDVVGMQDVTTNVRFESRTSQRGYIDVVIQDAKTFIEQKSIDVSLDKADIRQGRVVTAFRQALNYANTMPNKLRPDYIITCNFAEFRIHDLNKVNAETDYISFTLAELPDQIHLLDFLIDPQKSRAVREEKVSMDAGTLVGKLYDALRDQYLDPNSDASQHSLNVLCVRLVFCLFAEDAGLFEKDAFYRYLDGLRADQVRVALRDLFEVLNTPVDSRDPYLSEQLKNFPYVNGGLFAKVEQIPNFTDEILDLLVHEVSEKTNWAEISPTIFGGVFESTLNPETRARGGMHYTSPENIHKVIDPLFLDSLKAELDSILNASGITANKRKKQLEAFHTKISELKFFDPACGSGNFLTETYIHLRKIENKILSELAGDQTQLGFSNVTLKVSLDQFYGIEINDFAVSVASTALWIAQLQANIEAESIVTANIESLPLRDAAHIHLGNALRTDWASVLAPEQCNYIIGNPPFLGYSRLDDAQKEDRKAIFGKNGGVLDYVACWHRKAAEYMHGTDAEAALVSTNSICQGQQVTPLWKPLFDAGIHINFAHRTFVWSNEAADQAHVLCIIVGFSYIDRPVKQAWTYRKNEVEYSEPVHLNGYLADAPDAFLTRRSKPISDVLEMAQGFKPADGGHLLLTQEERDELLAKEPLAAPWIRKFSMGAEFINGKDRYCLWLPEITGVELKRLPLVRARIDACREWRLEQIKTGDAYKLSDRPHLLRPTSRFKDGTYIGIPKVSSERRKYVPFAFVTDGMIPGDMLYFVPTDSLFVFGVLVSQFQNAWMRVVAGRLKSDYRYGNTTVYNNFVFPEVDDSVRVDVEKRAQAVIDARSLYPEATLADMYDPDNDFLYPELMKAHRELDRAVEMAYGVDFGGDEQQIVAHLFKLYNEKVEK
The note with it: cuts N20/N18; protein in a lysate after overexpression.

For data set [2], the system named is T2, DrdIV (Deinococcus radiodurans NEB479).
T2 sequence (limits assumed): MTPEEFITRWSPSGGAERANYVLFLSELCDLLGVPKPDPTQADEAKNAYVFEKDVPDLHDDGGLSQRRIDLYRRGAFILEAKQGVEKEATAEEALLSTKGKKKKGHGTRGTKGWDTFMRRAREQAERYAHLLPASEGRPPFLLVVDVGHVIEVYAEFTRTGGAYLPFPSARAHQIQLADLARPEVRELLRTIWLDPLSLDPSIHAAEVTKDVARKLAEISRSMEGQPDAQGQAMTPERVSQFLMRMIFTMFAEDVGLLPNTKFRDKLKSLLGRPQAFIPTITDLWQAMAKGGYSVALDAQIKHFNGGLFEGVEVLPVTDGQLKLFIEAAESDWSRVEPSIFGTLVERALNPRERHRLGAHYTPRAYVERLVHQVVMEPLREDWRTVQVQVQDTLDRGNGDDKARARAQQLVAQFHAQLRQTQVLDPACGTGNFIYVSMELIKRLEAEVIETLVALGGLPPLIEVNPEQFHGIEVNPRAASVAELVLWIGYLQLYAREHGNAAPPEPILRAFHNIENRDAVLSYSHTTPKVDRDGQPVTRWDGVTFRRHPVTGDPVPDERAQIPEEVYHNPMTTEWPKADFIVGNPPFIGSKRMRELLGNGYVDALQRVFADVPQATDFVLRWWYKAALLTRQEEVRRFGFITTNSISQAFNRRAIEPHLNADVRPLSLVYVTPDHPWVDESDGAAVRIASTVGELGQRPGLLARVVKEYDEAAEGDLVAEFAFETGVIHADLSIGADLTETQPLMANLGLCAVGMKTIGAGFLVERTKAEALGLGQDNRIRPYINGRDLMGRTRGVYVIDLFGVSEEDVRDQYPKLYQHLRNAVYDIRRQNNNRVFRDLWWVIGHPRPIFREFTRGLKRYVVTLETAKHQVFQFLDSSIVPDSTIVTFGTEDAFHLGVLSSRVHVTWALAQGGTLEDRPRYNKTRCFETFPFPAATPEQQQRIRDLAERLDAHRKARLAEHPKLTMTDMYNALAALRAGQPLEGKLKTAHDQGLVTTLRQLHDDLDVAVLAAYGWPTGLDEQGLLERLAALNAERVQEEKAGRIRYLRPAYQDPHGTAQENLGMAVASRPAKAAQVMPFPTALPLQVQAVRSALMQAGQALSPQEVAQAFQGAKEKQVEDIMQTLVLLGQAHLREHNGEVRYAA
The note with it: elsewhere DrdIV is grouped as recognizing C at position 6; protein in a lysate after overexpression.

Data set [3] concerns T3, PspOMII (Pseudomonas species OM2164).
T3 sequence (limits assumed): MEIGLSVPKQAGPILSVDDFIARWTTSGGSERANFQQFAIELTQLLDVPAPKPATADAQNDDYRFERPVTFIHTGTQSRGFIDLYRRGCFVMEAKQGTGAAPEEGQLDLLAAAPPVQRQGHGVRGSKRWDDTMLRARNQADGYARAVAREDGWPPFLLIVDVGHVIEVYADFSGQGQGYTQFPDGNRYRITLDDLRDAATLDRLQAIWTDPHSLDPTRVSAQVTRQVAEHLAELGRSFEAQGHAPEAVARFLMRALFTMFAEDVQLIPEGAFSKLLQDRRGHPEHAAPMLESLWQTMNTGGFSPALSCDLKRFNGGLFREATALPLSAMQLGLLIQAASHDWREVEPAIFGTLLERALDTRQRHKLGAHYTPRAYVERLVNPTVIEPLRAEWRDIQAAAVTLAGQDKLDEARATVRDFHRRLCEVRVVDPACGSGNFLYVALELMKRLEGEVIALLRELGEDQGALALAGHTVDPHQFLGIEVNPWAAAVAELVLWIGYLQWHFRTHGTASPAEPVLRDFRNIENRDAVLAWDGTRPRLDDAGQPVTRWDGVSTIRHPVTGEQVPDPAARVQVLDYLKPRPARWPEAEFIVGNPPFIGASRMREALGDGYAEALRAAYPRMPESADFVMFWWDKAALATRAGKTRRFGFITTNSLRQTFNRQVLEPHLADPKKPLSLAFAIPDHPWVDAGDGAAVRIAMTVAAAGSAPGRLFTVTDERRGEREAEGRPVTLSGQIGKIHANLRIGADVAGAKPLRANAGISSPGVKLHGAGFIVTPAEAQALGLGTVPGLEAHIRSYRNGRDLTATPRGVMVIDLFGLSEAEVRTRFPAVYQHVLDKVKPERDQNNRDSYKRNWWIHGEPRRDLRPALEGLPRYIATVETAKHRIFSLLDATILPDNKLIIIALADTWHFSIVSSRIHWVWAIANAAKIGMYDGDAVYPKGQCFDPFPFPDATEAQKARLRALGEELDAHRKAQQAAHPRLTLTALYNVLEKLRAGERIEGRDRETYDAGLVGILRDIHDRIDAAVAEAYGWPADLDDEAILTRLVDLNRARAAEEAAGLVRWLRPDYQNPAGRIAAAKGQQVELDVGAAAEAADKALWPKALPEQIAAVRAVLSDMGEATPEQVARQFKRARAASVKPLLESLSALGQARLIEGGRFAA
Conditions: elsewhere PspOMII is said to recognize R at position 6; protein in a lysate after overexpression.

Data set [4] concerns T4, AquIII (Agmenellum quadruplicatum).
T4 sequence (limits assumed): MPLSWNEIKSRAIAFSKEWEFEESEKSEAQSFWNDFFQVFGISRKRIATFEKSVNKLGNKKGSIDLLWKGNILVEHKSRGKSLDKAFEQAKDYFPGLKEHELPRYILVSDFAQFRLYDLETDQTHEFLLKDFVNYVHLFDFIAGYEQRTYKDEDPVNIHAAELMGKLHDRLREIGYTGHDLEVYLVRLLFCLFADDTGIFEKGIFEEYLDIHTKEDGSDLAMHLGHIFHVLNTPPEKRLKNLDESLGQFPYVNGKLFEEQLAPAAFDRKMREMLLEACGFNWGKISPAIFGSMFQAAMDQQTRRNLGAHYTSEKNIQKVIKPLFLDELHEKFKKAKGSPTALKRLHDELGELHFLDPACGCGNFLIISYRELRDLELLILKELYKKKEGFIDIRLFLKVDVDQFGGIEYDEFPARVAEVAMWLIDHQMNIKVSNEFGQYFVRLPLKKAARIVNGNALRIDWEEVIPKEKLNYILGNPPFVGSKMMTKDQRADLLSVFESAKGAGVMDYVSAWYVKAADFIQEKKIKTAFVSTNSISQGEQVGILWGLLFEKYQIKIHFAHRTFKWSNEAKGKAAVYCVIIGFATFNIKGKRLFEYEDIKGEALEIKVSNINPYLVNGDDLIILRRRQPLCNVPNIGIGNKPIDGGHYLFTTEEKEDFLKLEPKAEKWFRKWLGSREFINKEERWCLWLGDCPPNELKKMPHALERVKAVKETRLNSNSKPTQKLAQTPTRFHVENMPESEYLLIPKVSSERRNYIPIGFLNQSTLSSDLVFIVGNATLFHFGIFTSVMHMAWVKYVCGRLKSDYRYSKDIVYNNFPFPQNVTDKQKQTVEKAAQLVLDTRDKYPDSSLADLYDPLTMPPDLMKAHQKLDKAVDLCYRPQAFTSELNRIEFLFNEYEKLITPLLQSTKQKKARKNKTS
The note with it: cuts N20/N18; protein in a lysate after overexpression.

The subject of data set [5] is T5, GauT27I.
T5 sequence (limits assumed): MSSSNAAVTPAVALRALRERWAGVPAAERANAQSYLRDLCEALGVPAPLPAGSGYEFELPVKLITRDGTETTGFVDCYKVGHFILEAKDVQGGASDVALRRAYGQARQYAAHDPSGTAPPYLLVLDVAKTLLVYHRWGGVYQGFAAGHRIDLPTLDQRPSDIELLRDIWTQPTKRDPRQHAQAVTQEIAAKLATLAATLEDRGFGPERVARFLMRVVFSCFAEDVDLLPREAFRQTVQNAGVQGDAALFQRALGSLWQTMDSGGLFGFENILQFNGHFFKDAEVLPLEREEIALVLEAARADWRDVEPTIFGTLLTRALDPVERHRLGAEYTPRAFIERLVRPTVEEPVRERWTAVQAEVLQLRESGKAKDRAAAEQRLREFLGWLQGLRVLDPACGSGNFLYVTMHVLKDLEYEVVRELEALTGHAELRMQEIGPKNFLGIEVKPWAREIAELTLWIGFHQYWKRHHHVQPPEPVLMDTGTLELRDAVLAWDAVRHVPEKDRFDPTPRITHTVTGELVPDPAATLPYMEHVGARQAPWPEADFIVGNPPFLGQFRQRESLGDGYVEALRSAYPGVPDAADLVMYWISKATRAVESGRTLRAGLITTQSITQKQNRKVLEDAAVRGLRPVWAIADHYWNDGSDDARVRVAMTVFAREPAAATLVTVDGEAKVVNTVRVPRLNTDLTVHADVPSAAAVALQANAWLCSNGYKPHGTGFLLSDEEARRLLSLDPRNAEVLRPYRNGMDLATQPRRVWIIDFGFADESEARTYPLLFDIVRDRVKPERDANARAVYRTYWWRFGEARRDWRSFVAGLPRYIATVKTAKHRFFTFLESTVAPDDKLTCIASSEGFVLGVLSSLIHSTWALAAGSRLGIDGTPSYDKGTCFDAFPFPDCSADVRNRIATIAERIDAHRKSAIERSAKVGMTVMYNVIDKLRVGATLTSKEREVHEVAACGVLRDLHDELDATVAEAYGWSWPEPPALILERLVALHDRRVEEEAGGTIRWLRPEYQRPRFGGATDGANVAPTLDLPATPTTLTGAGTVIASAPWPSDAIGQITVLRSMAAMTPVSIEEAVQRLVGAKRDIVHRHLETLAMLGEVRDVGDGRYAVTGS
The note with it: cuts 19/17; protein in a lysate after overexpression.

Data set [6] has as its system T6, PlaDI (Parvibaculum lavamentivorans).
T6 sequence (limits assumed): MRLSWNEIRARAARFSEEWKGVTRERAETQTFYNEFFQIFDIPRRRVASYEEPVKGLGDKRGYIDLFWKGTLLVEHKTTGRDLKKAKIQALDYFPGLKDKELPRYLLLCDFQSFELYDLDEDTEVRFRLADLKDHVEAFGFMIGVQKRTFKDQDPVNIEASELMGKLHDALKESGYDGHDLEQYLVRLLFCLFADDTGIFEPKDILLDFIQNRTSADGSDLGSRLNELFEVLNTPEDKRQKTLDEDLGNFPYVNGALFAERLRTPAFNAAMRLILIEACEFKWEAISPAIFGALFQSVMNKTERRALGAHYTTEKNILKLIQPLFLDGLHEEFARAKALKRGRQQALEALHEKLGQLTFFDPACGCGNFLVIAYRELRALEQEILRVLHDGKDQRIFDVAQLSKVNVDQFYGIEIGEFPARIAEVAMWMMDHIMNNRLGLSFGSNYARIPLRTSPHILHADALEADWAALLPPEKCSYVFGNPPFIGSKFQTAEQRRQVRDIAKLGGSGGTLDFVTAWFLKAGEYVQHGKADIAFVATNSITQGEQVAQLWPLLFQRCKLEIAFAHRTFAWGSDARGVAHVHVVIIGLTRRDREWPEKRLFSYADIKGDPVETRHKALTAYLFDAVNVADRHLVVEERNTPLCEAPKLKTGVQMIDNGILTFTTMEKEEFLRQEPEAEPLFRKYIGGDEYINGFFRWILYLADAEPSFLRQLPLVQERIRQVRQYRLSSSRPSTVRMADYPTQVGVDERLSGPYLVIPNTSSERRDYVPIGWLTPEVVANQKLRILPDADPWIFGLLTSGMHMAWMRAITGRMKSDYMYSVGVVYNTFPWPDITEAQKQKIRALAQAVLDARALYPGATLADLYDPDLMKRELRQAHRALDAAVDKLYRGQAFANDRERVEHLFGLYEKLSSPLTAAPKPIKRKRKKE
The note with it: cuts N20/N18; protein in a lysate after overexpression.

Tags and fusion partners may be left off the protein sequences shown.

In the case of GCGGAG (double strand) [CdpI site], the “activity on this sequence” value in data set [1], in data set [2] and in data set [3] was “active” throughout. For the sequence GAGGAG (double strand) [AquIII site], the “activity on this sequence” value in data set [4] was “active”.

CGCGCAGG (double strand) [GauT27I site]: the “activity on this sequence” value in data set [5] is listed as “active”.

As to CATCAG (double strand) [PlaDI site], in data set [6], the “activity on this sequence” value is on record as “active”.
